Changes are numbered by the printed parent chain. These are yes or no findings as the source states them, for the method shown. In cells and extracts the contact can be indirect. Some results given as binding are weak or reduced against the parent protein; the word gives no strength.
Tests used:
Experiment in all cases: co-IP; U373 MG lysates (1% NP-40 in PBS, protease inhibitors; 1 mg protein, pre-cleared) incubated with mouse anti-hepaCAM extracellular domain antibody (clone 419305) and protein G agarose overnight at 4 °C; four washes; blot for connexin 43; mouse IgG1 (MOPC-21) as negative control
[1] = biological target: T1, Wild-type hepaCAM/GlialCAM (UniProt Q14CZ8)
T1 sequence: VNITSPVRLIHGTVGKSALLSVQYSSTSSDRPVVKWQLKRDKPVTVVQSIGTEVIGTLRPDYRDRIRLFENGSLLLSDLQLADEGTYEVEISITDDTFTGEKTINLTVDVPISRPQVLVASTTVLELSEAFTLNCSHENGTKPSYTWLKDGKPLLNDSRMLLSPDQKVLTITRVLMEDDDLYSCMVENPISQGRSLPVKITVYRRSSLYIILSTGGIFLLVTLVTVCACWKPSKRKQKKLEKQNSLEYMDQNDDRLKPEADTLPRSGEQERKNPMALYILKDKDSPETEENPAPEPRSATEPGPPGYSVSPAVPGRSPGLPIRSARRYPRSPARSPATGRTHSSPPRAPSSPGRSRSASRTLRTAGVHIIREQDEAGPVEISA

Sequences of proteins named here, by UniProt entry; tags and fusion partners are left off.
UniProt P17302: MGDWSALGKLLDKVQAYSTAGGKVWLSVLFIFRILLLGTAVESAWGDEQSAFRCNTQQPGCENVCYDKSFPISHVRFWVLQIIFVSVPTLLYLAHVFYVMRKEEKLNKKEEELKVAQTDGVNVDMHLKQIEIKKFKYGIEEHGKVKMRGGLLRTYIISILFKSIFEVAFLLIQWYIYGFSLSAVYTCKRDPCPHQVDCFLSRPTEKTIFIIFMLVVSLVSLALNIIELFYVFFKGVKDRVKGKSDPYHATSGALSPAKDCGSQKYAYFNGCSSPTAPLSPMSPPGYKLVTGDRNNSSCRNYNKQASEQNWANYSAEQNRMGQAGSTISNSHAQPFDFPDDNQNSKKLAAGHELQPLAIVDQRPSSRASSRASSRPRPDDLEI

[2] = biological target: T2, GlialCAM-R92Q (UniProt Q14CZ8)
T2 sequence: T1 sequence with R59Q

[3] = biological target: T3, GlialCAM-R92W (UniProt Q14CZ8)
T3 sequence: T1 sequence with R59W

- binding [1]: binds
- binding [2]: binds weakly
- binding [3]: binds weakly
Substance: connexin 43 (from UniProt P17302 1-382)

— paper PMC5098153
